From article PMC11323550
No constants are given. Whether binding was seen depends on the method and setting. Binding can be weak; no strength is given. Where a sequence is shown, tags or fusion partners need not be part of it.

Protein sequences, listed by entry. Tags and fused reporters are not part of them. Lines headed by an entry give the natural chain unless they say otherwise; changes in a name come on top.
UniProt P0A068: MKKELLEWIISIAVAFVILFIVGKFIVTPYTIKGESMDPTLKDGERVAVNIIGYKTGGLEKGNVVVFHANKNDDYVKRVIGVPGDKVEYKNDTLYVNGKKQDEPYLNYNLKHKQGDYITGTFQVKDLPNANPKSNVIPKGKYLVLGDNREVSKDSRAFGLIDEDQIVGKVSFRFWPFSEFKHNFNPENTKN

What was measured:
[1] = biological target: T1, MspA amino acids 25-105 with T25 tag fused at the N-terminus (S. aureus) (UniProt Q2FVZ6); experiment: two-hybrid; bacterial two-hybrid (BACTH), T25 and T18 fusions co-transformed in E. coli BTH101; dotted on LB with X-gal and 1-mM IPTG, 30°C for 24 h; three replicates
T1 sequence: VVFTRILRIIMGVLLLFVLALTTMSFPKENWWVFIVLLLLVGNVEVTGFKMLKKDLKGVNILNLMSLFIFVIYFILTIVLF

[2] = biological target: T2, MspA amino acids 2-84 with T18 tag fused at the C-terminus (S. aureus) (UniProt Q2FVZ6); experiment: as above
T2 sequence: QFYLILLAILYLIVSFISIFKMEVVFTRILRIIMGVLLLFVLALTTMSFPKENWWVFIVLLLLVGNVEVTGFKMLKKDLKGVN

Substance	binding [1]	binding [2]
Full SpsB sequence with T18 fused to N-terminus (from UniProt P0A068) (enzyme)	binds	
Full SpsB sequence with T25 fused to N-terminus (from UniProt P0A068) (enzyme)		binds
Flotillin (FloA), BACTH fusion (S. aureus)	no binding	no binding
Extracellular SpsB domain (amino acids 38-191), BACTH fusion (from UniProt P0A068) (domain or fragment)	no binding	no binding
